## Primary screen of a compound library

Amino acid sequences for entries named in this document (tags omitted).
UniProt P9WFT3, whole entry: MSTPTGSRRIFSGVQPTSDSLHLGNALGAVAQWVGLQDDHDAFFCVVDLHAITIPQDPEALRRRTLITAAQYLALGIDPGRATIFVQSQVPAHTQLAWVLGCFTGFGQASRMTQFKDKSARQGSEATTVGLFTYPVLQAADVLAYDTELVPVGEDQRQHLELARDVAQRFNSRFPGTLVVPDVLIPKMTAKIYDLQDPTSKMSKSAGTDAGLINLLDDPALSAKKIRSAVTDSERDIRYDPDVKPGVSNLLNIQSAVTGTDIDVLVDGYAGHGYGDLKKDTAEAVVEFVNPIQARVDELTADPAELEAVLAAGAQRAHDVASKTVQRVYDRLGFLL

Values are the deposited “Percent Effect”, in %.
The controls that fix the scale are not given in the record; negative values are as filed.
Compounds were drawn at random from those tested, without regard to their results.

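Enzyme assay of tryptophanyl-tRNA synthetase; the read-out is not stated. Target: Tryptophan-tRNA ligase, Mycobacterium tuberculosis (UniProt P9WFT3). Compounds at 10 µM. Direction is not recorded; retested compounds ran higher, which suggests that high means inhibition. Of about 65,000 compounds tested this way, about 64 (0.098%) reached 50% or more in at least one test.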

compound | effect
Cc1cc(C2CCCN(CCc3ccc4c(c3)CCO4)C2)n[nH]1 (stereo not shown) | -2.907
COc1ccc(C2=CCN(C(=O)CN(C)Cc3ccco3)CC2)cc1 | -5.387
Cc1occc1C(=O)N1C[C@@H]2CN(S(C)(=O)=O)CCO[C@@H]2C1 | 10.78
Cc1nn(CC(C)C)c(N(C)C)c1CNCCC(=O)NC(C)C | -2.348
Cc1cc(C)c(C#N)c(N2CCC3(CCCN(CCO)C3=O)C2)n1 (stereo not shown) | 0.4591
CCc1ccc(CN2C[C@@H]3OCCN(c4ccnc(N(C)C)n4)[C@@H]3C2)o1 | 4.688
O=C(NCCCO)C1(CC2CC(c3ccc(F)cc3)=NO2)CCOCC1 (stereo not shown) | -2.263
Cc1ccc(F)c(OC2CCCN(c3cnn(C)c3)C2=O)c1 (stereo not shown) | -1.941
CCN(C(c1ccc(OC)cc1)c1cccnc1)S(C)(=O)=O (stereo not shown) | -2.437
CCC(CO)N(Cc1ccsc1)Cc1ccccc1C(=O)O (stereo not shown) | -6.691
CC(C)NC(=O)N1CCC2(CC(C(=O)NCc3cccnc3)=NO2)C1 (stereo not shown) | -5.142
CCc1nccn1C1CCCN(C(=O)CCc2nccs2)C1 (stereo not shown) | -3.365
Cc1nn(C(C)C)c(C)c1CN1CCN(C2CCCCC2)C(=O)C1 | -2.546
CC(=O)N[C@@H](CC(C)C)C(=O)N1CCC(n2cc(CC(C)C)nn2)CC1 | 3.965
O=C(CNc1cccc2c1CCCC2)Nc1ccccc1Br | 2.375
CC(C)N(CC(N)=O)Cc1c(Cl)ccc2cccnc12 | -0.3812
Cc1cc(NC(=O)CN2CCn3c(C)nnc3C2)no1 | -1.871
c1cncc(CN2CCc3c(CNc4nccs4)n[nH]c3C2)c1 | 3.734
CC(=O)N[C@@H]1CN(C2CCN(c3cccc(C)c3C)CC2)C[C@H]1C(C)C | -4.886
CC(C)Cc1noc(CN2CCN(C(=O)c3cccc(F)c3)CC2)n1 | 1.398
COCCN1CCC(C(=O)N(C)Cc2cccc(Cl)c2)C1 (stereo not shown) | 0.3734
c1ccc2[nH]c(C3CCN(Cc4nnc(C5CC5)o4)CC3)nc2c1 | -5.253
Cc1cnc(C(=O)N2CCCN(Cc3csc(C)n3)CC2)cn1 | -0.08224
Cc1nc2c(c(NCC(O)C(F)(F)F)n1)CCNCC2 (stereo not shown) | 2.129
CN1CCN(C2COC3(CCN(Cc4ccc(F)cc4)CC3)C2)CC1 (stereo not shown) | 1.876
O=C(NC1CC1)[C@@H]1CCO[C@@H]2CCN(Cc3ccco3)C[C@H]21 | -2.658
CCc1nc2n(n1)CC(NCc1nnc(C(C)C)o1)CC2 (stereo not shown) | -0.7062
Cc1ccc(C)c(C(=O)N2CCOC(CCN(C)C)C2)c1 (stereo not shown) | 1.975
Cn1ccnc1N1CCN(C(=O)Cc2ccc(Cl)cc2)CC1 | 1.187
Cc1cc(S(=O)(=O)Nc2onc(C)c2C)sc1C | -4.045
Cc1nc(CN2CCCC(N(C)Cc3nc(CC(C)C)no3)C2)no1 (stereo not shown) | 1.058
CCOc1cc(F)ccc1NC1CCN(CC(F)(F)F)C1=O (stereo not shown) | -6.033
COC(=O)C1CCN(C(=O)Cn2ccc(-c3ccc(F)cc3)n2)CC1 | -4.736
CC(=O)N(Cc1ncc(C)o1)C1CCN(Cc2noc(C)n2)C1 (stereo not shown) | -0.5473
O=C(NCc1ccc(-n2cncn2)nc1)c1ccc2c(c1)CCO2 | 0.3912
COc1cc(C(=O)N2CC3(CCNCC3)c3cc(Cl)ccc32)ccn1 | -2.156
COc1cccc(C(C)Nc2ncnc3c2NC(=O)CN3)c1 (stereo not shown) | 4.838
CCn1[nH]c(C)c2c(C(F)(F)C(F)(F)F)cc(=O)nc1-2 | -1.685
CC(C)(C)c1nc(C(C)(C)NC(=O)C2CC(=O)N(CC3CC3)C2)no1 (stereo not shown) | -4.664
CCSCCC(=O)Nc1ncn(Cc2ccccc2)n1 | -1.065
CCOCCNS(=O)(=O)c1ccc2c3c1CCCN3C(=O)CO2 | -3.233
CCCc1nnc(N(C)CC2CCN(CC(C)C)C2)o1 (stereo not shown) | 1.147
Cc1cc(C)n(CC2CCCCN2C(=O)c2sccc2C#N)n1 (stereo not shown) | 0.9279
FC(F)(F)c1ccnc(N2CCCN(Cc3ccccn3)CC2)n1 | 2.422
Cc1cc(CN2CCN(Cc3ccc(C#N)cc3F)CC2)no1 | -0.7341
O=C(COCC1CCCCO1)N1CCN(Cc2ccccc2F)C(=O)C1 (stereo not shown) | -2.515
CC(C(=O)NCCN1CCOCC1)n1cncn1 (stereo not shown) | 0.5303
Cn1nccc1-c1cccc(CC2CCN(S(C)(=O)=O)C2)n1 (stereo not shown) | 1.371
CC(C)c1cc(C(=O)N2CCN(C)[C@@H]3CS(=O)(=O)C[C@@H]32)no1 | -2.02
O=C1CC(c2ccc(C(=O)O)cc2)c2ncn(-c3ccccc3)c2N1 (stereo not shown) | 1.809
COCCN(CC(N)=O)CC1CCCN(C2Cc3ccccc3C2)C1 (stereo not shown) | 2.081
Cn1nccc1C(=O)N1CCC(n2cc(-c3ccsc3)nn2)CC1 | -6.033
COC(=O)c1sc(NCc2ccc(N3CCC(O)CC3)c(F)c2)nc1Cl | -3.865
COC(=O)NCC(=O)NC1CC(C)(C)Cc2oc(C)cc21 (stereo not shown) | -4.85
Cc1nc2cc(CNC(=O)C3CC(=O)N(CCN(C)C)C3)ccc2n1C (stereo not shown) | -2.177
CC(C)(C)Oc1ccncc1NCc1cscn1 | 1.952

7 of the entries, repeated:

compound,effect
Cc1nn(C(C)C)c(C)c1CN1CCN(C2CCCCC2)C(=O)C1,-2.546
CCC(CO)N(Cc1ccsc1)Cc1ccccc1C(=O)O (stereo not shown),-6.691
Cc1cnc(C(=O)N2CCCN(Cc3csc(C)n3)CC2)cn1,-0.08224
O=C(NCCCO)C1(CC2CC(c3ccc(F)cc3)=NO2)CCOCC1 (stereo not shown),-2.263
Cc1cc(C)n(CC2CCCCN2C(=O)c2sccc2C#N)n1 (stereo not shown),0.9279
Cc1cc(C)c(C#N)c(N2CCC3(CCCN(CCO)C3=O)C2)n1 (stereo not shown),0.4591
COC(=O)C1CCN(C(=O)Cn2ccc(-c3ccc(F)cc3)n2)CC1,-4.736

The values are deposited in ChEMBL (CHEMBL3988442, “University of Dundee, Small-Polar-MMV Screening Library” (2021)).